Holding throughout (assay): log2 fold change, soluble protein after heating vs DMSO (PISA); higher = thermal stabilisation; K562 cells, 10 uM, 30 min; active = over 0.2 and 3.5 SD of the protein, either way, in both replicates (recomputed)
Compound in one test: CON(C)C(=O)N1N=C(c2cc(F)ccc2F)S[C@@]1(CCCN)c1ccccc1 [filanesib]
Summed up: (§1)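 Quantification of soluble protein used TMTpro 16plex LC-MS/MS, with channel sums equalised. Samples were the supernatant after 21,000xg for 90 min of pooled aliquots from K562 cells (2×10^6 cells/mL) treated with 10 μM compound for 30 min, heated for 3 min over 48°C-58°C, and extracted in PBS with 0.5% NP-40 at 4°C. Values, from duplicates, describe thermal stability against control samples on a log2 fold-change scale.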

Chains of the proteins cited; added tags and fusions are not shown. Lines headed by an entry give the natural chain unless they say otherwise; changes in a name come on top.
UniProt Q08AE8, whole entry, looked up: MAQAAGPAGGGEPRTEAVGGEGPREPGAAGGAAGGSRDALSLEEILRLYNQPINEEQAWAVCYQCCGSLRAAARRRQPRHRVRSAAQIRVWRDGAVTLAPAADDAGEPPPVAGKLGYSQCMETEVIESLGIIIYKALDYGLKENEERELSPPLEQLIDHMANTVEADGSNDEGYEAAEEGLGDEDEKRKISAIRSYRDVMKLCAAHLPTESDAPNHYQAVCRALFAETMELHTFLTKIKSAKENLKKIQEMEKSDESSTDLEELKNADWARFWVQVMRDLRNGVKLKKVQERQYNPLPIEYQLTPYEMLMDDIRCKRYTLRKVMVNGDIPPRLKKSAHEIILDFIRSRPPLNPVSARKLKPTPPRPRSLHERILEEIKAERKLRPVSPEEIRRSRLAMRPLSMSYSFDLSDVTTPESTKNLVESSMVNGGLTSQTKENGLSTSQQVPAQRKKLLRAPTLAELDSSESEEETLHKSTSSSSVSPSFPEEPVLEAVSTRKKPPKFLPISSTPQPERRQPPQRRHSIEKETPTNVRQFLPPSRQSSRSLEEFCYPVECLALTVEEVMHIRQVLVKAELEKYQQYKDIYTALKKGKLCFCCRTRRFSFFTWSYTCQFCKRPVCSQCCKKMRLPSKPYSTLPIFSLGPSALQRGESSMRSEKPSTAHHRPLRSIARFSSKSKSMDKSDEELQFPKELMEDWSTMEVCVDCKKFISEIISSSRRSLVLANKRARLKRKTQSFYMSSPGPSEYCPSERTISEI
UniProt O75177, whole entry, looked up: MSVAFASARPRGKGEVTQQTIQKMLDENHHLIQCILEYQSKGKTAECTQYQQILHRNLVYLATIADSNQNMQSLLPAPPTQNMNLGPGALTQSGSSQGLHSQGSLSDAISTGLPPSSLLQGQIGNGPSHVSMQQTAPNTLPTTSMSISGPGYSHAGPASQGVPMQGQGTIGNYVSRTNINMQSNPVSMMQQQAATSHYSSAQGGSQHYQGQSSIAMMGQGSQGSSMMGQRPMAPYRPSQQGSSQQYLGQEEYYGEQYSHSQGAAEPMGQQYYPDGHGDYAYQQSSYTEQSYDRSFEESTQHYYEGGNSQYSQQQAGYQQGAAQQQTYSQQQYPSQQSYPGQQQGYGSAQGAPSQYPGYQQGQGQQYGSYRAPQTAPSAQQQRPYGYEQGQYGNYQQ
UniProt Q11201: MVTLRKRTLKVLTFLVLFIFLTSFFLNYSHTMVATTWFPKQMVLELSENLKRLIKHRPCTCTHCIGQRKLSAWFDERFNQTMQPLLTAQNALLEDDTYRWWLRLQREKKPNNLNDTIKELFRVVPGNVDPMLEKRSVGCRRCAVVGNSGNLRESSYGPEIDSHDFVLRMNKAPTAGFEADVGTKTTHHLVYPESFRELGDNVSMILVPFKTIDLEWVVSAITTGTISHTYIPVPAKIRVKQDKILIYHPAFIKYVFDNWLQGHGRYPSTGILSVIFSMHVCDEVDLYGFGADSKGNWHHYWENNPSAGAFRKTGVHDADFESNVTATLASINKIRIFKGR
UniProt Q9P246, whole entry, looked up: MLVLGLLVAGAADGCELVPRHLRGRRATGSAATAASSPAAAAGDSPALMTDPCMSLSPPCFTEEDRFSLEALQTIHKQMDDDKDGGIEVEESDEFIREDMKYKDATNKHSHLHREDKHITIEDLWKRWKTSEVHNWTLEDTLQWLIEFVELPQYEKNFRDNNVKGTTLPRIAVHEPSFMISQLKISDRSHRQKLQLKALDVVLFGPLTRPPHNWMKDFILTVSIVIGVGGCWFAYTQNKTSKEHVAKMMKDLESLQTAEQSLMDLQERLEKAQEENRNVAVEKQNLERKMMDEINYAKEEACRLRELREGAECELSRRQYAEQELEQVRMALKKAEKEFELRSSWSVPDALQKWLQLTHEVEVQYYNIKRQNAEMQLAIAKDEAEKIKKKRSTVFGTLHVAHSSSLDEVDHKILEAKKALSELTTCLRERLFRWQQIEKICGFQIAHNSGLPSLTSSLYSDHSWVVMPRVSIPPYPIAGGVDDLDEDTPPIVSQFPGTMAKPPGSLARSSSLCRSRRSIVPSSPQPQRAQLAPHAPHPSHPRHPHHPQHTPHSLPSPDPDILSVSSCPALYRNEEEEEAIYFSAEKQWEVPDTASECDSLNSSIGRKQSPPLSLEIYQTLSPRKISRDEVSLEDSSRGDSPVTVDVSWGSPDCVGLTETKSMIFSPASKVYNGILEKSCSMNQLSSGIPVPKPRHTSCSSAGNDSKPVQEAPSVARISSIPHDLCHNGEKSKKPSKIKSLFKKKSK
UniProt Q8N9Q2: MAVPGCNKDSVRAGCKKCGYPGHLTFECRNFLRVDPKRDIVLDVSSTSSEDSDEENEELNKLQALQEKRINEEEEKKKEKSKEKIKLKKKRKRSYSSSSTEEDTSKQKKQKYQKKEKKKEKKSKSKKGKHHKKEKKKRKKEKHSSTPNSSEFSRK
UniProt Q9C0H9: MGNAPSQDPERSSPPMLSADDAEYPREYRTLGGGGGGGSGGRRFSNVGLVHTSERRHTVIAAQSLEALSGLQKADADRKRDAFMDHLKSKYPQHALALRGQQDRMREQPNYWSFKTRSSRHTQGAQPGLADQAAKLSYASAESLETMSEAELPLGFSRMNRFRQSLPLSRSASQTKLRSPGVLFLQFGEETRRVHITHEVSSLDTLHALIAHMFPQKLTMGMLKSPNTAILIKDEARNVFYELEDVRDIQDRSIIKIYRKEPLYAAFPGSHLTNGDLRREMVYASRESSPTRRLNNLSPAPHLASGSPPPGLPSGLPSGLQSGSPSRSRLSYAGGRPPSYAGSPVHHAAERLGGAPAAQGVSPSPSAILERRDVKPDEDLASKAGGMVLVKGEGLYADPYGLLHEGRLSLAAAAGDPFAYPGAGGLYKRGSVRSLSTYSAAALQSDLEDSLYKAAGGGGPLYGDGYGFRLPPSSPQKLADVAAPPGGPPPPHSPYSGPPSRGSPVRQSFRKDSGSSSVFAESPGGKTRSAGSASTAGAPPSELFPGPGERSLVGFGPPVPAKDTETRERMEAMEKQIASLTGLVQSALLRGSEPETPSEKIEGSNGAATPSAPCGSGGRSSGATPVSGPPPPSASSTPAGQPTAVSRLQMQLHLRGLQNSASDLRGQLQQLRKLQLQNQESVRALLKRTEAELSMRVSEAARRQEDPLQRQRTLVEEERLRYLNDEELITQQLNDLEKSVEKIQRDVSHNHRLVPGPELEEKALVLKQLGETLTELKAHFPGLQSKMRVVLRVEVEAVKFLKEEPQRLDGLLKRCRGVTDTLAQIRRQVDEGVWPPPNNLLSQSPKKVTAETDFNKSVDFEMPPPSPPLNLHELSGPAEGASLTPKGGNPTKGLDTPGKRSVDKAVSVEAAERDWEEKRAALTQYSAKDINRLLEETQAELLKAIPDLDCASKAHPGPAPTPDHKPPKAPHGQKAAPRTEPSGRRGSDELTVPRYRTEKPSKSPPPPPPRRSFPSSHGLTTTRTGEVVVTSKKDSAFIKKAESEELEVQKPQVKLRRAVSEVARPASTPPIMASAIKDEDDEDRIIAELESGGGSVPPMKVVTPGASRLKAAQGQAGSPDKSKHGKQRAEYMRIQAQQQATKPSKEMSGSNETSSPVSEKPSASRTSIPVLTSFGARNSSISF
UniProt P36956: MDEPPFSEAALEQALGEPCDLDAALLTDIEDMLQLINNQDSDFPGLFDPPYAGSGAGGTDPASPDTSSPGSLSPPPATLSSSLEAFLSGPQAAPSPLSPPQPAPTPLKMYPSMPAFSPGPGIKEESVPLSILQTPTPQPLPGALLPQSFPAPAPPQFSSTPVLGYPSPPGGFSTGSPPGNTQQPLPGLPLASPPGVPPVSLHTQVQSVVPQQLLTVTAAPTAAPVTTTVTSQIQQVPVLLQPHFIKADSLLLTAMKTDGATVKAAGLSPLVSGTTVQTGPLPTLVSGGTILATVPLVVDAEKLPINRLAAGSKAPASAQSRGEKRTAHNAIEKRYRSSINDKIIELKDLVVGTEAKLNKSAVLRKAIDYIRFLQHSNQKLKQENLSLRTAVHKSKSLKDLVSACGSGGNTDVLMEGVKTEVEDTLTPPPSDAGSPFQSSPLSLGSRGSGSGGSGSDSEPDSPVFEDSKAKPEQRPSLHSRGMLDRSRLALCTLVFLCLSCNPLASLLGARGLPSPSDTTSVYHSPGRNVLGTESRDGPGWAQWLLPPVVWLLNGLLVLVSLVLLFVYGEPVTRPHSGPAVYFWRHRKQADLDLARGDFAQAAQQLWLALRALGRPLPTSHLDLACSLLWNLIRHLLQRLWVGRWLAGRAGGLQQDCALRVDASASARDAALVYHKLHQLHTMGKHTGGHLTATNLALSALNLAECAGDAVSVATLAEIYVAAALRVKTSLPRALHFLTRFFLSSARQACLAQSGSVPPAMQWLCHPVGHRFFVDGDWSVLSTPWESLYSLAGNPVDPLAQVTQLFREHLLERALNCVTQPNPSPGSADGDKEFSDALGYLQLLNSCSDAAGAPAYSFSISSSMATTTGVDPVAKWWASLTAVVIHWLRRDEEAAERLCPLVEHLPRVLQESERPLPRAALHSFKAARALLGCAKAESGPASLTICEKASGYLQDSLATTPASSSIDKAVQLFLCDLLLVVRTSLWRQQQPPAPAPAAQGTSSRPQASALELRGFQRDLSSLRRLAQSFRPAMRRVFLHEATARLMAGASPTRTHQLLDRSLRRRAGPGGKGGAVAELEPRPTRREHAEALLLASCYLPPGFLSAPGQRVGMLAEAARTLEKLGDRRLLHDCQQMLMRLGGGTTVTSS
UniProt P81877: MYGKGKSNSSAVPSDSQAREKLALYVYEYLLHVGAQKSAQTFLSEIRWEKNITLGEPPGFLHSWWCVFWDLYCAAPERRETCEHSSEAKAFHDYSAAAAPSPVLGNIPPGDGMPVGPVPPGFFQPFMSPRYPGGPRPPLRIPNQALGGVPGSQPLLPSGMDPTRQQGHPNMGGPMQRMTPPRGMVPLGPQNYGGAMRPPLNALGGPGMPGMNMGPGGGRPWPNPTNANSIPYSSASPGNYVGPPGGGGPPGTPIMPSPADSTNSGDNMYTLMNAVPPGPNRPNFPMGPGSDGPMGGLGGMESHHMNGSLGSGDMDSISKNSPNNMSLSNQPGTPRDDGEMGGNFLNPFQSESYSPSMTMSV
UniProt Q9NRA0: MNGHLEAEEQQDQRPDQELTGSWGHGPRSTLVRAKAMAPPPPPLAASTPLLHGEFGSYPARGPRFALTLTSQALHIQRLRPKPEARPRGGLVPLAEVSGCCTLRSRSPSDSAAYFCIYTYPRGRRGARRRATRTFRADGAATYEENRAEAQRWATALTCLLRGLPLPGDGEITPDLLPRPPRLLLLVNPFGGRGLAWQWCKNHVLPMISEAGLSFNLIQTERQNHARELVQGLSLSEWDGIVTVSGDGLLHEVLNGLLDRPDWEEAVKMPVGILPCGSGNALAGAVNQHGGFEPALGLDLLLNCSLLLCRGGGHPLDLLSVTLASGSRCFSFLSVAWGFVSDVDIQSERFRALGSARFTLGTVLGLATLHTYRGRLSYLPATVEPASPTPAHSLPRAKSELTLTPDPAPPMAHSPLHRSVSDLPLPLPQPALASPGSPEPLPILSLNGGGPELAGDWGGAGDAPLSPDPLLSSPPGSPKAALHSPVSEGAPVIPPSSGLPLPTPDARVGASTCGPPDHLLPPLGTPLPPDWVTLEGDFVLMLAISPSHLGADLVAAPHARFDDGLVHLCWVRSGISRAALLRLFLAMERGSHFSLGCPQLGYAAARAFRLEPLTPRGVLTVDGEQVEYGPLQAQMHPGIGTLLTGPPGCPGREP
UniProt P35325: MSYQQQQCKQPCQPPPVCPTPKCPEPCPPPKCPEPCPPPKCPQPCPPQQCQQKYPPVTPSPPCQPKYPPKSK
UniProt P22528: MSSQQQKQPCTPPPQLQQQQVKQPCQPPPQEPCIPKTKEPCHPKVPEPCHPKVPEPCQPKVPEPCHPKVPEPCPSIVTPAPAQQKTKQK
UniProt O76061, whole entry, looked up: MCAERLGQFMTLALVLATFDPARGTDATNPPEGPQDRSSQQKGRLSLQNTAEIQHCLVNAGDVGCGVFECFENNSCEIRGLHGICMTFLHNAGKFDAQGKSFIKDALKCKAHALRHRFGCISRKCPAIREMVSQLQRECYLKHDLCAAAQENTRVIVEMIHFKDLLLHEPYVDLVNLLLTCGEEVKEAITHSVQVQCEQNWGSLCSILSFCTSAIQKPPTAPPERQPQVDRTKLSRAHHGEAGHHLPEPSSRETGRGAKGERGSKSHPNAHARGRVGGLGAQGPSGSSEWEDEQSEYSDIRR
UniProt Q11206: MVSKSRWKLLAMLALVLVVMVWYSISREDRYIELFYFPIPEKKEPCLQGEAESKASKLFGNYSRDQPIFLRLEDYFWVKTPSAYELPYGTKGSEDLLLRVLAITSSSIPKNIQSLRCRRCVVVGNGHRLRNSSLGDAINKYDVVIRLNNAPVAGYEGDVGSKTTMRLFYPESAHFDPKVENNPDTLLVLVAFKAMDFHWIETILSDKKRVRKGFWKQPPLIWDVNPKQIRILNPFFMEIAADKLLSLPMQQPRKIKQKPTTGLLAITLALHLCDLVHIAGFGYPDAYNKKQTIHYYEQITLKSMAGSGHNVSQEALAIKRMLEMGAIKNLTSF

Compound in test [1]: COC1=CC=C(C=C1)CN2C=CC3=C2C=C(C=C3)C(=O)NO
Summed up: as §1

Compound in the next test: CO[C@H]1C[C@@H]2CC[C@@H](C)[C@@](O)(O2)C(=O)C(=O)N2CCCC[C@H]2C(=O)O[C@H]([C@H](C)C[C@@H]2CC[C@H](n3cnnn3)[C@H](OC)C2)CC(=O)[C@H](C)/C=C(\C)[C@@H](O)[C@@H](OC)C(=O)[C@H](C)C[C@H](C)/C=C/C=C/C=C/1C [zotarolimus]
A digest of the protocol: as §1

Compound in a further test: COc1cc(C(=O)O)ccc1NC(=O)[C@@H]1N[C@@H](CC(C)(C)C)[C@](C#N)(c2ccc(Cl)cc2F)[C@H]1c1cccc(Cl)c1F [idasanutlin]
Summed up:
as §1

Compound in another test: COc1cc(Nc2ncc3c(n2)-c2ccc(Cl)cc2C(c2c(F)cccc2OC)=NC3)ccc1C(=O)O [alisertib]
A digest of the protocol:
as §1

Compound in another test: COc1cc2ncnc(Nc3ccc(F)c(Cl)c3)c2cc1OCCCN1CCOCC1 [gefitinib]
Summed up: as §1

Compound in test [2]: COc1cccc2cc(-c3nc([C@H]4CC[C@H](C(=O)O)CC4)n4ncnc(N)c34)[nH]c12
Summed up: as §1

Compound in a further test: CS(=O)(=O)N1CCN(Cc2cc3nc(-c4cccc5[nH]ncc45)nc(N4CCOCC4)c3s2)CC1 [pictilisib]
A digest of the protocol:
as §1

Compound in test [3]: COc1cc2nc(-c3cc(F)ccc3O)nc(N[C@@H]3CNC[C@H]3C(C)(C)O)c2cc1OC
A digest of the protocol:
as §1

Compound in a further test: CS(=O)(=O)CCNCc1ccc(-c2ccc3ncnc(Nc4ccc(OCc5cccc(F)c5)c(Cl)c4)c3c2)o1 [lapatinib]
Summed up: as §1

The list shows a part of the results.

Consider SSH2 (UniProt Q76I76), for which, in the test with filanesib, the log2 fold change was inactive: 0.015.

Regarding SPIRE1 (UniProt Q08AE8), the log2 fold change in [1] was active: -0.509; in the test with zotarolimus, inactive: -0.051; with idasanutlin, inactive: -0.023; with alisertib, inactive: -0.033; in the test with gefitinib, inactive: -0.013; in test [2], inactive: 0.049. Further, the log2 fold change with pictilisib was inactive: 0.188.

For SS18L1 (UniProt O75177), the log2 fold change is inactive: 0.05 in [3] and inactive: -0.073 with lapatinib.

As to ST3GAL1 (UniProt Q11201), the log2 fold change was inactive: 0.015 in the test with zotarolimus, inactive: 0.074 in [3] and inactive: 0.174 with lapatinib.

For SRD5A3 (UniProt Q9H8P0), the log2 fold change in test [1] was inactive: 0.061; with idasanutlin, inactive: -0.066; with alisertib it was inactive: -0.14; in the test with gefitinib, inactive: -0.002; in test [2], inactive: 0.095; with pictilisib, inactive: 0.022.

For the target STAB1 (UniProt Q9NY15), the log2 fold change in [1] was inactive: -0.29; with zotarolimus, inactive: 0.061; with alisertib, inactive: 0.288; in [3], inactive: 0.245; in test [2] it was inactive: 0.061; with lapatinib, inactive: -0.289. For the same target, the log2 fold change with pictilisib is inactive: -0.029.

With SPRED1 (UniProt Q7Z699), the log2 fold change with zotarolimus was inactive: -0.088; in the test with idasanutlin it was inactive: 0.052.

Take STIP1 (UniProt H0YGI8): the log2 fold change in the test with pictilisib is inactive: 0.101.

Regarding SPINT1 (UniProt O43278), the log2 fold change in [1] is inactive: -0.02; with filanesib it was inactive: -0.037; in test [3], inactive: 0.11; with lapatinib, inactive: -0.148; in the test with pictilisib, inactive: 0.115.

Take SSR2 (UniProt P43308): the figures for the log2 fold change (in the test with alisertib; with gefitinib; in [2]) were inactive: 0.141, inactive: 0.079 and inactive: -0.116, respectively.

Take SPP2 (UniProt Q13103): the log2 fold change with filanesib was inactive: 0.101; with zotarolimus, inactive: -0.115; in the test with idasanutlin, inactive: 0.089.

On to STIM2 isoform 2 (UniProt Q9P246), for which the log2 fold change with idasanutlin was inactive: 0.172; in test [3] it was inactive: 0.047; in the test with gefitinib, inactive: -0.135; with lapatinib, inactive: -0.186.

SS18 (UniProt Q15532): the log2 fold change in the test with zotarolimus was inactive: 0.284; with idasanutlin it was inactive: -0.156; with alisertib, inactive: -0.129; in test [3], inactive: -0.357; with gefitinib, inactive: -0.043; in test [2], inactive: -0.057. The log2 fold change in the test with lapatinib is inactive: -0.05; with pictilisib it was inactive: 0.041.

Turning to SREK1IP1 (UniProt Q8N9Q2), the log2 fold change in the test with filanesib was inactive: 0.152; with zotarolimus, inactive: 0.01; with idasanutlin, inactive: 0.159; in the test with alisertib, inactive: -0.025; in test [3] it was inactive: 0.076; with gefitinib it was inactive: -0.07. Also, the log2 fold change in [2] was inactive: 0.049; with lapatinib it was inactive: 0.086; in the test with pictilisib, inactive: 0.09.

In the case of SPRED2 (UniProt Q7Z698), the log2 fold change with zotarolimus was inactive: -0.048; with idasanutlin it was inactive: 0.195.

Turning to SPDL1 (UniProt Q96EA4), the log2 fold change in the test with filanesib was inactive: 0.2; with zotarolimus, inactive: 0.124; in test [3] it was inactive: 0.042; with lapatinib, inactive: 0.139.

Regarding SRCIN1 (UniProt Q9C0H9), the log2 fold change is inactive: -0.259 with idasanutlin and inactive: 0.125 with pictilisib.

As to STK19 (UniProt P49842), the log2 fold change with idasanutlin was inactive: -0.131.

Turning to SPEN (UniProt Q96T58), the log2 fold change in the test with zotarolimus is inactive: -0.033; in the test with idasanutlin it was inactive: -0.091; with alisertib it was inactive: 0.537; in [3] it was inactive: -0.152; in the test with gefitinib, inactive: 0.086; in [2], inactive: -0.043. Also, the log2 fold change was inactive: -0.048 with lapatinib and inactive: -0.046 with pictilisib.

Take SREBF1 isoform 4 (UniProt P36956): the log2 fold change in test [1] is inactive: -0.089; with alisertib, inactive: -0.014; in [2], inactive: 0.098.

On to SSBP3 (UniProt Q9BWW4), for which the log2 fold change is inactive: 0.024 in the test with filanesib; inactive: -0.044 with zotarolimus; inactive: 0 in the test with idasanutlin; inactive: -0.002 with alisertib; inactive: -0.12 in test [3]; inactive: 0.003 in the test with gefitinib. Moreover, the results for the log2 fold change (in test [2]; in the test with lapatinib; with pictilisib) were inactive: 0.067, inactive: -0.16 and inactive: 0.046, respectively.

On to SSBP2 (UniProt P81877), for which the log2 fold change with zotarolimus is inactive: -0.015; with alisertib, inactive: 0.035; in test [3], inactive: -0.022; in [2], inactive: 0.092; in the test with lapatinib, inactive: -0.398; with pictilisib, inactive: -0.015.

Regarding SSBP4 (UniProt U3KPY3), the log2 fold change with alisertib is inactive: 0.023; in test [2], inactive: 0.212.

Take SSX1 (UniProt Q16384): the log2 fold change in the test with zotarolimus was inactive: 0.151; with idasanutlin it was inactive: 0.324; in test [3], inactive: -0.214; with lapatinib it was inactive: 0.127.

On to SPHK2 isoform 5 (UniProt Q9NRA0), for which the log2 fold change is inactive: 0.046 with filanesib, inactive: -0.128 in test [3] and inactive: 0.012 with lapatinib.

Turning to SPRR2B (UniProt P35325), the log2 fold change with alisertib is inactive: 0.472; in the test with gefitinib, inactive: 0.092; in test [2], inactive: 0.047.

Take SPRR1B (UniProt P22528): the log2 fold change is inactive: 2.35 with alisertib and inactive: 0.011 in test [2].

Turning to SPICE1 (UniProt Q8N0Z3), the log2 fold change with gefitinib was inactive: 0.095; with pictilisib, inactive: 0.527.

As to SRGAP1 (UniProt Q7Z6B7), the log2 fold change in test [1] is inactive: 0.019; in the test with alisertib it was inactive: -0.162; in test [3], inactive: 0.054; in the test with gefitinib, inactive: -0.032; in test [2], inactive: 0.033; with lapatinib, inactive: -0.056. The log2 fold change with pictilisib is inactive: 0.288.

For the target STC2 (UniProt O76061), the log2 fold change is inactive: -0.191 in [3], inactive: 0.251 with gefitinib, inactive: 0.046 with lapatinib and inactive: 0.171 with pictilisib.

As to SPATS2 (UniProt Q86XZ4), the log2 fold change was inactive: -0.074 with zotarolimus and inactive: -0.053 in the test with pictilisib.

Turning to SPATA33 isoform 2 (UniProt Q96N06), the log2 fold change with filanesib was inactive: -0.021; with zotarolimus, inactive: -0.048; with idasanutlin, inactive: 0.127; in test [3] it was inactive: 0.012; with gefitinib it was inactive: 0.061; with lapatinib it was inactive: -0.024. Also, in the test with pictilisib, the log2 fold change was inactive: 0.04.

Turning to SPPL3 (UniProt Q8TCT6), the log2 fold change with alisertib was inactive: 0.085; in [2] it was inactive: 0.

As for STAR (UniProt P49675), the log2 fold change in the test with alisertib was inactive: 0.211; in test [2], inactive: -0.159.

For SQOR (UniProt Q9Y6N5), the log2 fold change is inactive: 0.112 in the test with filanesib and inactive: 0.145 in the test with pictilisib.

STARD10 (UniProt Q9Y365): the log2 fold change with filanesib was inactive: 0.089.

For ST3GAL4 isoform 4 (UniProt Q11206), the log2 fold change with filanesib is inactive: -0.026; in the test with zotarolimus, inactive: -0.149; with idasanutlin, inactive: -0.074; in the test with gefitinib it was inactive: -0.012.

In the case of SRBD1 (UniProt Q8N5C6), the log2 fold change with pictilisib is inactive: -0.032.

For the origin of these results see the supplement of paper PMC10849652.
